# Measured values published in paper PMC11900302 (2025).
# Test: general procedure: solution-phase peptide synthesis; HBTU/DIPEA
# Settings: coupling step
row,Substance,step yield [%]
1,N-Acetoxymethyl-N-(N-[N^α-(N-tert-butoxycarbonyl-L-glycyl)-N^δ-trityl-L-glutaminyl]-L-prolyl)-4-(thiomorpholinyl)-L-homoalanine methyl ester,73
2,N^α-(N-[N^α-(N-tert-butoxycarbonyl-L-glycyl)-N^γ-trityl-L-asparaginyl]-L-prolyl)-N^ω-tosyl-L-arginine methyl ester,83
3,N-Acetoxymethyl-N-(N-[N^α-(N-tert-butoxycarbonyl-L-glycyl)-N^δ-trityl-L-glutaminyl]-L-prolyl)-4-(2S-methyloxycarbonyl-1-pyrrolidinyl)-L-homoalanine methyl ester,69
4,N-Acetoxymethyl-N-(N-[N^α-(N-tert-butoxycarbonyl-L-glycyl)-N^δ-trityl-L-glutaminyl]-L-prolyl)-4-(morpholinyl)-L-homoalanine methyl ester,80
5,N-(N-[N^α-(N-tert-butoxycarbonyl-L-glycyl)-N^δ-trityl-L-glutaminyl]-L-prolyl)-4-hydroxy-L-proline methyl ester,87
6,N^α-(N-[N^α-(N-tert-butoxycarbonyl-L-glycyl)-N^δ-trityl-L-glutaminyl]-L-prolyl)-N^ω-tosyl-L-arginine methyl ester,87

# Same assay, conditions: late stage modification step
row,Substance,step yield [%]
1,N-(N-[N^α-(L-glycyl)-L-glutaminyl]-L-prolyl)-4-thiomorpholinyl-L-homoalanine,99
2,N^α-(N-[N^α-(L-glycyl)-L-asparaginyl]-L-prolyl)-N^ω-tosyl-L-arginine,99
3,N^α-(N-[N^α-(L-glycyl)-L-glutaminyl]-L-prolyl)-N^ω-tosyl-L-arginine,99
4,N^α-(N-[N^α-(L-glycyl)-L-glutaminyl]-L-prolyl)-4-hydroxy-L-proline,99
5,N-(N-[N^α-(L-glycyl)-L-glutaminyl]-L-prolyl)-4-morpholinyl-L-homoalanine,99
